# Results are given in words; binding and its absence hold for the method and conditions named. Binding seen in cells or lysates may run through a third protein. Here binding means that the protein was enriched with, or labelled near, the bait; the list need not be complete. A no says only that the protein was not detected with the bait.
# The chains behind the UniProt entries cited, without tags or fusion partners. Residues count along the entry.
# UniProt Q9NXA8, residues 37-310: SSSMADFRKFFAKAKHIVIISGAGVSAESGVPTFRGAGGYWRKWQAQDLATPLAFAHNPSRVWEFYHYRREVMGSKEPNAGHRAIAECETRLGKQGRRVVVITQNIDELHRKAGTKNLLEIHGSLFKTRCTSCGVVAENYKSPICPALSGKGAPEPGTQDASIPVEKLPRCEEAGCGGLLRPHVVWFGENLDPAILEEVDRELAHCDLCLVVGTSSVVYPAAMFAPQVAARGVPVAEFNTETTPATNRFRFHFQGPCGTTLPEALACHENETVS
# T1: p66CH2CB WT (N-terminal domains CH2 and CB of p66Shc, residues 1-150) (UniProt P29353)
# T1 sequence: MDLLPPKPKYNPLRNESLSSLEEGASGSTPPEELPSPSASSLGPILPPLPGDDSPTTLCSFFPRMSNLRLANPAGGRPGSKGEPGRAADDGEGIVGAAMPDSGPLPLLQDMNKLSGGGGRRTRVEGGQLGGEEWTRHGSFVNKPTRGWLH
# B1: Peroxiredoxin 1 (Prx1), endogenous in mitochondrial lysate (protein, UniProt Q63716 1-199)
# chain: MSSGNAKIGHPAPSFKATAVMPDGQFKDISLSDYKGKYVVFFFYPLDFTFVCPTEIIAFSDRAEEFKKLNCQVIGASVDSHFCHLAWINTPKKQGGLGPMNIPLVSDPKRTIAQDYGVLKADEGISFRGLFIIDDKGILRQITINDLPVGRSVDEILRLVQAFQFTDKHGEVCPAGWKPGSDTIKPDVNKSKEYFSKQK
# B2: Prx3, endogenous in mitochondrial lysate (protein, UniProt Q9Z0V6 63-257)
# chain: TPAVTQHAPHFKGTAVVNGEFKELSLDDFKGKYLVLFFYPLDFTFVCPTEIVAFSDKANEFHDVNCEVVAVSVDSHFSHLAWINTPRKNGGLGHMNITLLSDLTKQISRDYGVLLESAGIALRGLFIIDPNGVIKHLSVNDLPVGRSVEEPLRLVKAFQFVETHGEVCPANWTPESPTIKPSPTASKEYFEKVHQ
# B3: catalase, endogenous in mitochondrial lysate (protein, UniProt P04762 1-527)
# chain: MADSRDPASDQMKQWKEQRAPQKPDVLTTGGGNPIGDKLNIMTAGPRGPLLVQDVVFTDEMAHFDRERIPERVVHAKGAGAFGYFEVTHDITRYSKAKVFEHIGKRTPIAVRFSTVAGESGSADTVRDPRGFAVKFYTEDGNWDLVGNNTPIFFIRDAMLFPSFIHSQKRNPQTHLKDPDMVWDFWSLCPESLHQVTFLFSDRGIPDGHRHMNGYGSHTFKLVNANGEAVYCKFHYKTDQGIKNLPVEEAGRLAQEDPDYGLRDLFNAIASGNYPSWTFYIQVMTFKEAETFPFNPFDLTKVWPHKDYPLIPVGKLVLNRNPANYFAEVEQMAFDPSNMPPGIEPSPDKMLQGRLFAYPDTHRHRLGPNYLQIPVNCPYRARVANYQRDGPMCMHDNQGGAPNYYPNSFSAPEQQGSALEHHSQCSADVKRFNSANEDNVTQVRTFYTKVLNEEERKRLCENIANHLKDAQLFIQRKAVKNFTDVHPDYGARVQALLDQYNSQKPKNAIHTYVQAGSHIAAKGKANL
# Experiments:
# Sirtuin 5 (Sirt5) = Sirtuin 5 (Sirt5) (UniProt Q9NXA8); assay: affinity purification with mass spectrometry; His-tagged bait (p66CH2CB as a mixture of dimeric and tetrameric state, or the Sirt5 control) saturating Talon resin; 3 mg mitochondrial lysate, 10 mM imidazole, 1 h at room temperature; eluate digested with trypsin and analysed by MudPIT; only the target purified
# [1] = biological target: T1, p66CH2CB WT (N-terminal domains CH2 and CB of p66Shc, residues 1-150); assay: as above
Binder,binding (Sirtuin 5 (Sirt5)),binding [1]
B1,no binding,–
B2,no binding,–
B3,no binding,no binding

# — paper PMC2806001
